# The other results are listed elsewhere or left out.
# Chains of the proteins cited; added tags and fusions are not shown. Lines headed by an entry give the natural chain unless they say otherwise; changes in a name come on top.
# UniProt Q9Y303: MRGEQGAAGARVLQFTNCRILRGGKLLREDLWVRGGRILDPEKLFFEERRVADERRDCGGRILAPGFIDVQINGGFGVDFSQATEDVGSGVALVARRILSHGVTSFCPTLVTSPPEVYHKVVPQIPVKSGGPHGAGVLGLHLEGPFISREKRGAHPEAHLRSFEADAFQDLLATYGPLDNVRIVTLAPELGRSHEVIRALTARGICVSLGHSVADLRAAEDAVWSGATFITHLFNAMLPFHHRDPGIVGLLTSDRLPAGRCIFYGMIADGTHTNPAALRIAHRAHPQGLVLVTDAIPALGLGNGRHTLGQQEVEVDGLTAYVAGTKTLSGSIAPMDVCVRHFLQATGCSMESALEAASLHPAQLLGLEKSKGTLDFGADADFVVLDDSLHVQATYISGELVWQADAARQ
# UniProt O14617: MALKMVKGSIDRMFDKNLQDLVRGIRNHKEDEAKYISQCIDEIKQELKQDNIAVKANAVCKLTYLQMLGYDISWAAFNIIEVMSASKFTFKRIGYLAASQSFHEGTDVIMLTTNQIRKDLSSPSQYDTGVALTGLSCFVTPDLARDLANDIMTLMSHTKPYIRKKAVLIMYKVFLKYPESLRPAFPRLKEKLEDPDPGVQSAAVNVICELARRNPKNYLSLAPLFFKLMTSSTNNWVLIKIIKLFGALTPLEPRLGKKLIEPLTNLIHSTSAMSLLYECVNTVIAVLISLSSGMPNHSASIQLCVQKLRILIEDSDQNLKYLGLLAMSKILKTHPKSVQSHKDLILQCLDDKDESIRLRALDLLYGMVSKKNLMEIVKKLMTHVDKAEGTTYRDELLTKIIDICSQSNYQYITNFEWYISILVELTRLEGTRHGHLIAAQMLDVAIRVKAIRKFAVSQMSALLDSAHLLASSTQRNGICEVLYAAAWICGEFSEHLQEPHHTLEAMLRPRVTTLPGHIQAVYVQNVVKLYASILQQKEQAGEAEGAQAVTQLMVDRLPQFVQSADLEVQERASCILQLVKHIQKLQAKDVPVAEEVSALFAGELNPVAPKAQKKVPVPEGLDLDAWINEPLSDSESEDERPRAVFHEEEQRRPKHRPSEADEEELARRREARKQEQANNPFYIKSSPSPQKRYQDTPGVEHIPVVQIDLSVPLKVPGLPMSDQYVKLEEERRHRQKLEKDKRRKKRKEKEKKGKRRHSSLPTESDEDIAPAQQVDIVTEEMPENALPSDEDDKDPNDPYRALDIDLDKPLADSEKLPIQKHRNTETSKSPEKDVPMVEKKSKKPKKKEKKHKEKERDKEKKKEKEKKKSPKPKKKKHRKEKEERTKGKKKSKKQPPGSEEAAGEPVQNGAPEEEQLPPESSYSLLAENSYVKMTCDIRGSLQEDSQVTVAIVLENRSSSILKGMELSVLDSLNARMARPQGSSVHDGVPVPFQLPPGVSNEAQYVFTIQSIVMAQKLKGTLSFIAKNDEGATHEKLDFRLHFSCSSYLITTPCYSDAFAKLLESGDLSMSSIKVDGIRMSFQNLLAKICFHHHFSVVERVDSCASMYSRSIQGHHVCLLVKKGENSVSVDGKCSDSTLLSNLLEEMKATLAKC
# UniProt Q8WVL7: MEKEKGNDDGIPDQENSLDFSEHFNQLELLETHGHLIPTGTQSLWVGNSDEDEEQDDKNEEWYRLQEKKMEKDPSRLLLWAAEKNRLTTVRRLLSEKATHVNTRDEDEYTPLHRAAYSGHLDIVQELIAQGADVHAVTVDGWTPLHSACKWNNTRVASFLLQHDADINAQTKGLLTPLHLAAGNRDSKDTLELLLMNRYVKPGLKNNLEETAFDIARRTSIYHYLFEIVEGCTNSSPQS
# UniProt P09972: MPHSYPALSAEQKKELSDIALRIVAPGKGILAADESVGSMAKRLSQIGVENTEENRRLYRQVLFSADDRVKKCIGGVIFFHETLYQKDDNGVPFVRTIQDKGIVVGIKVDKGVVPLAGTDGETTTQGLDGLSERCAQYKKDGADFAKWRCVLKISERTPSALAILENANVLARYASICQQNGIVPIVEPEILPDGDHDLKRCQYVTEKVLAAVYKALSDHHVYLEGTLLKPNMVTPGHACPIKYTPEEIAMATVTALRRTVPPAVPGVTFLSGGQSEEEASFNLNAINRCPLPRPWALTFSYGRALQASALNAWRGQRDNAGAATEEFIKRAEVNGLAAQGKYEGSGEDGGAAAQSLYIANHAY
# UniProt Q9NXW9: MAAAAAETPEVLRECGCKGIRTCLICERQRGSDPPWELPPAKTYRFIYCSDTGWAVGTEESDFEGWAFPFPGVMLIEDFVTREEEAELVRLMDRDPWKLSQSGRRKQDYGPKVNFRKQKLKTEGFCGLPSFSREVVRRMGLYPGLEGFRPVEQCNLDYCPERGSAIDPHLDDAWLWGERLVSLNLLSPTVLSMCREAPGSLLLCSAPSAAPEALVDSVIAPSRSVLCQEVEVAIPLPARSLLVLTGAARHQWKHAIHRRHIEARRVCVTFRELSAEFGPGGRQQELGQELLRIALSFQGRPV
# UniProt Q9H553: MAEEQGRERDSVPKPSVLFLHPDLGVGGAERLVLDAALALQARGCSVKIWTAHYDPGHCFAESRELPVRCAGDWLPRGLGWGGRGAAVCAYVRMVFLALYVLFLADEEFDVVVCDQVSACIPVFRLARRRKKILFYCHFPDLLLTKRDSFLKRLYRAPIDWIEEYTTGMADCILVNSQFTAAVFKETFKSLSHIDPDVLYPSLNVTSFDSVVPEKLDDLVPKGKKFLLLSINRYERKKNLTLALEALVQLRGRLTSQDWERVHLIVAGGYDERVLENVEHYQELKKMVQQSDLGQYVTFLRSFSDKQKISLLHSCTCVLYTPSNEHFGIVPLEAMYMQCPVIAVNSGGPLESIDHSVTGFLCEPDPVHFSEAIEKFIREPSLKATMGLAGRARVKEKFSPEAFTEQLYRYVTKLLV
# UniProt P17707: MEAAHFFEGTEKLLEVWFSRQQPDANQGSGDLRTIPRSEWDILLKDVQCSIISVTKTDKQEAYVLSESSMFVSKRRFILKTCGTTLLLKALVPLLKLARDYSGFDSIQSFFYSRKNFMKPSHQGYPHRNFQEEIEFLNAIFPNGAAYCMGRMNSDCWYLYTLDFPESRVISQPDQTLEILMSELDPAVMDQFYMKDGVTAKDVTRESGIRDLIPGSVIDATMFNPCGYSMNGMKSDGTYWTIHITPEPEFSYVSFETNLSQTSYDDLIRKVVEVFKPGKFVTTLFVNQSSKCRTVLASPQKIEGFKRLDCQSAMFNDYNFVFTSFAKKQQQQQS
# UniProt O94788: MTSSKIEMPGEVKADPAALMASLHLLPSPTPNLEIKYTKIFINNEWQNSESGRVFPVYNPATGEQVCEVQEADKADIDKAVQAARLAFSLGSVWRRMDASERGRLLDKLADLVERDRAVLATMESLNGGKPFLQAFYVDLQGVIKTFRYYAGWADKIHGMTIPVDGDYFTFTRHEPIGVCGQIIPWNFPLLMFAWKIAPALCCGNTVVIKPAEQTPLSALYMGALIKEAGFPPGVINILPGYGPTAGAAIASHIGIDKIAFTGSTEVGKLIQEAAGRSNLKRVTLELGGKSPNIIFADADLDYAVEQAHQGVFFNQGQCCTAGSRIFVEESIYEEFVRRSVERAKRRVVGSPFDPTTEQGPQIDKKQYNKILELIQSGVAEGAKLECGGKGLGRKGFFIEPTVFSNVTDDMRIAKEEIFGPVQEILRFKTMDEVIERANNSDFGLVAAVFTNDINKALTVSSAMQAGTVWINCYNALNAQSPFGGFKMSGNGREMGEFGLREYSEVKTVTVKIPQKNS
# UniProt P09525: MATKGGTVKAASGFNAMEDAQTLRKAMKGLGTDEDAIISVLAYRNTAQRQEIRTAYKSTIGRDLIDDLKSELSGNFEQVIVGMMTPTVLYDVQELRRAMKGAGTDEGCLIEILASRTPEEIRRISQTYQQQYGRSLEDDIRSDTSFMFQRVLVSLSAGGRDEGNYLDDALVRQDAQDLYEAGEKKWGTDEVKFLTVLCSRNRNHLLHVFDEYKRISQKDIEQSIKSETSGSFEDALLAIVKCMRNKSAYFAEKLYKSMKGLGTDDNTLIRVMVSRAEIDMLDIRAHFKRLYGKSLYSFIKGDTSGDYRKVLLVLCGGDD
# UniProt Q92572: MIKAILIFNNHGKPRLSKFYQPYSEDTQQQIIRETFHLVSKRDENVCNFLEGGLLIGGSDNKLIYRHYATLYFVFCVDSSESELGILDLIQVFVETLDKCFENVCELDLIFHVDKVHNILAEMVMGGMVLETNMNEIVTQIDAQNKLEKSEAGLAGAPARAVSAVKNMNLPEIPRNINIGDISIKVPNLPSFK
# UniProt Q01432: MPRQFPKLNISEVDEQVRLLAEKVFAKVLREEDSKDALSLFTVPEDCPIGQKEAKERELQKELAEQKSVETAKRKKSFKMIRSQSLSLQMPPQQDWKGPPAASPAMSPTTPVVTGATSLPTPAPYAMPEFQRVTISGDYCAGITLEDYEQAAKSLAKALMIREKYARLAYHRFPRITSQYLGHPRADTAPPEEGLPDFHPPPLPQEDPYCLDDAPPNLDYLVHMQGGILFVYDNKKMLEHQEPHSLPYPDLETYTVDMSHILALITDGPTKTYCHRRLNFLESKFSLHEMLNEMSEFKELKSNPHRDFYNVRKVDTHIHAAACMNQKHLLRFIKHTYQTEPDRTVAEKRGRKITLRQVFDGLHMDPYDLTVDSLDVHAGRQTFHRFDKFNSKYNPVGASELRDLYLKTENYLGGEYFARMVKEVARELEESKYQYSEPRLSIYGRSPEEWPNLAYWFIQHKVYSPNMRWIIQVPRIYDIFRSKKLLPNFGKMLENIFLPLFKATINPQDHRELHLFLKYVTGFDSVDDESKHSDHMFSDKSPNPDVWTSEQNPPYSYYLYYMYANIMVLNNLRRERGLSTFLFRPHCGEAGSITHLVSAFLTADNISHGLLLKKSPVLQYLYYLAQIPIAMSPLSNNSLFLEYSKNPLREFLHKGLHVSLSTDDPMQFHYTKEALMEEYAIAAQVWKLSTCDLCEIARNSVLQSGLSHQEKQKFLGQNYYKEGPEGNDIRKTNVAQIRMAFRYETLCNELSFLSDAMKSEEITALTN
# UniProt Q63HQ0: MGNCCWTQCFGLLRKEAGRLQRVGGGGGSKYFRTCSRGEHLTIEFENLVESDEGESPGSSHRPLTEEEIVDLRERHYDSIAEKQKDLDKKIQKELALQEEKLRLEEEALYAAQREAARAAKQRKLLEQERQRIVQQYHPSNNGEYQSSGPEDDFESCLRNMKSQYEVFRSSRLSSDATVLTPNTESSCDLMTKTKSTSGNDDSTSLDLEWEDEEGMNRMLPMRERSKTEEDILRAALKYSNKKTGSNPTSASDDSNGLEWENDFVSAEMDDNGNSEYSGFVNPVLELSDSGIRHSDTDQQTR
# UniProt Q86XL3: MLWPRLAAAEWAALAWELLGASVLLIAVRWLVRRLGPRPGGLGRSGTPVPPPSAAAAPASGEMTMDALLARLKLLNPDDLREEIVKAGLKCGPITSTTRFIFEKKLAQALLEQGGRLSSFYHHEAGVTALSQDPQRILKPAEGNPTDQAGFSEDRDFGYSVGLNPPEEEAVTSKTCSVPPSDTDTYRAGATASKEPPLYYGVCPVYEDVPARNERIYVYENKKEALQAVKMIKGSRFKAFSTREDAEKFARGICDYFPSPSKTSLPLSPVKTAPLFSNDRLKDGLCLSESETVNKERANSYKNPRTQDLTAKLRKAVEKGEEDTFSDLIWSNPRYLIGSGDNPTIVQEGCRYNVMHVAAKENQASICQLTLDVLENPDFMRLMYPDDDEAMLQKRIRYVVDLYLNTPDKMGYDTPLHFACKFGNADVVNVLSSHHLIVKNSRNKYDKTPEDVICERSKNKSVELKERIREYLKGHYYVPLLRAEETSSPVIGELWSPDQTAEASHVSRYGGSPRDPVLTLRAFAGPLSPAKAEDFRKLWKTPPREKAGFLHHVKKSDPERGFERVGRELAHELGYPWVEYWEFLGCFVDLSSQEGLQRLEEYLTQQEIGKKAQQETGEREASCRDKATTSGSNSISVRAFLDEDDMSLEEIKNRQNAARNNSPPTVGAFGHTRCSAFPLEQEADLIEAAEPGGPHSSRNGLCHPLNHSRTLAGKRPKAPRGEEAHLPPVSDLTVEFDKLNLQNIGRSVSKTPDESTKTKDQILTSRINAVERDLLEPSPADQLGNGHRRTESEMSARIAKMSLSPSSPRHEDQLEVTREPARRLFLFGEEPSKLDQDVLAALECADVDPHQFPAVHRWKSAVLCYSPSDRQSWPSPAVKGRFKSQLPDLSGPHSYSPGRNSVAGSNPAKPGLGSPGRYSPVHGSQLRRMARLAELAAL
# Key:
# Test in all cases: log2 fold change, soluble protein after heating vs DMSO (PISA); higher = thermal stabilisation; K562 lysate, 10 uM; active = over 0.2 and 3.5 SD of the protein, either way, in both replicates (recomputed)
# [1] = compound: C1=CC=C(C=C1)[C@H](COC2=CC3=C(C=C2)NC(=O)N3)NC(=O)C4=CC=CN(C4=O)CC5=CC(=C(C=C5)F)F
# Outline: (§1)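 A 30 min treatment with 10 μM compound was applied to crude K562 extract at 1 mg/mL protein in PBS pH 7.4 with 1 mM MgCl2. Heating for 3 min spanned 48°C-58°C, after which aliquots were pooled, adjusted to 0.5% NP-40 at 4°C and spun at 21,000xg for 90 min. TMTpro 16plex LC-MS/MS of the supernatant, with channel sums equalised, gave values recorded as log-two fold change in thermal stability against solvent controls, from duplicates.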
# [2] = compound: CC1=C(SC2=C1C(=N[C@H](C3=NN=C(N32)C)CC(=O)N)C4=CC=C(C=C4)Cl)C
# Outline: as §1
# [3] = compound: CC1=C2C(=CC=C1)N=C(N(C2=O)C3=CC=CC=C3C)CN4C=NC5=C(N=CN=C54)N
# Outline: as §1
# [4] = compound: Cc1sc2c(c1C)C(c1ccc(Cl)cc1)=N[C@@H](CC(=O)OC(C)(C)C)c1nnc(C)n1-2
# Outline: as §1
# [5] = compound: c1ccc([C@@H]2C[C@H]2NC2CCNCC2)cc1
# Outline: as §1
Target,log2 fold change [1],log2 fold change [2],log2 fold change [3],log2 fold change [4],log2 fold change [5]
AMDHD2 isoform 3 (UniProt Q9Y303),inactive: 0.049,inactive: 0.016,inactive: 0.031,inactive: 0.037,inactive: -0.043
AP3D1 isoform 5 (UniProt O14617),inactive: 0.042,inactive: -0.027,inactive: 0.003,inactive: 0.025,inactive: -0.028
AMPD2 (UniProt Q01433),inactive: 0.013,inactive: 0.011,inactive: 0.018,inactive: -0.007,inactive: -0.013
ANKRD13D isoform 3 (UniProt Q6ZTN6),inactive: -0.125,inactive: 0.064,inactive: -0.183,inactive: 0.045,inactive: 0.004
ALG8 (UniProt Q9BVK2),inactive: 0.034,inactive: 0.001,inactive: 0.059,inactive: -0.013,inactive: -0.008
AKT1S1 isoform 3 (UniProt Q96B36),inactive: 0,inactive: 0.027,inactive: 0.062,inactive: 0.009,inactive: -0.054
ANKRD49 (UniProt Q8WVL7),inactive: -0.019,inactive: -0.012,inactive: -0.046,inactive: -0.06,inactive: -0.044
AP2A2 isoform 2 (UniProt O94973),inactive: -0.016,inactive: 0.007,inactive: 0.016,inactive: 0.023,inactive: -0.013
ALDOC (UniProt P09972),inactive: 0.063,inactive: -0.012,inactive: -0.021,inactive: 0.015,inactive: -0.031
ALKBH3 (UniProt Q96Q83),inactive: 0.007,inactive: -0.031,inactive: 0.021,inactive: 0.013,inactive: -0.014
ALKBH4 (UniProt Q9NXW9),inactive: 0.011,inactive: 0.025,inactive: 0.032,inactive: 0.01,inactive: -0.017
ALKBH5 (UniProt Q6P6C2),inactive: -0.001,inactive: 0.001,inactive: 0.04,inactive: 0.06,inactive: -0.08
ALG2 (UniProt Q9H553),inactive: 0.051,inactive: 0.093,inactive: 0.089,inactive: -0.105,inactive: 0.086
ANKMY2 (UniProt Q8IV38),inactive: -0.007,inactive: 0.009,inactive: 0,inactive: 0.008,inactive: 0.077
AMD1 (UniProt P17707),inactive: -0.027,inactive: 0.01,inactive: -0.017,inactive: 0.005,inactive: -0.019
ALG6 (UniProt Q9Y672),inactive: 0.02,inactive: -0.05,inactive: 0.288,inactive: -0.067,inactive: -0.038
ALDH1A2 (UniProt O94788),inactive: 0.008,inactive: -0.012,inactive: -0.024,inactive: -0.019,inactive: 0.009
ANXA4 (UniProt P09525),inactive: 0.011,inactive: 0.003,inactive: 0.01,inactive: -0.023,inactive: 0.034
ALDH4A1 (UniProt P30038),inactive: 0.011,inactive: -0.052,inactive: 0.107,inactive: -0.039,inactive: 0.064
AP3S1 (UniProt Q92572),inactive: -0.013,inactive: -0.037,inactive: -0.072,inactive: 0.016,inactive: -0.001
ALDH5A1 isoform 2 (UniProt P51649),inactive: -0.029,inactive: -0.018,inactive: -0.017,inactive: 0.004,inactive: 0.075
AP2B1 isoform 2 (UniProt P63010),inactive: -0.008,inactive: -0.018,inactive: 0.001,inactive: 0.012,inactive: -0.001
ANKRD27 (UniProt Q96NW4),inactive: -0.025,inactive: 0.022,inactive: -0.011,inactive: 0.042,inactive: -0.002
ANP32E (UniProt Q9BTT0),inactive: 0.043,inactive: -0.005,inactive: -0.053,inactive: -0.038,inactive: 0.026
AMPD3 isoform 4 (UniProt Q01432),inactive: 0.02,inactive: -0.021,inactive: -0.012,inactive: 0.018,inactive: 0.093
ANXA7 (UniProt P20073),inactive: 0.017,inactive: -0.013,inactive: 0.007,inactive: 0.012,inactive: -0.017
ANKRD31 (UniProt Q8N7Z5),inactive: -0.047,inactive: 0.066,–,inactive: -0.293,–

# For convenience, some entries already given.
Target,log2 fold change [1],log2 fold change [2],log2 fold change [3],log2 fold change [4],log2 fold change [5]
AMPD3 isoform 4 (UniProt Q01432),inactive: 0.02,inactive: -0.021,inactive: -0.012,inactive: 0.018,inactive: 0.093
ANXA7 (UniProt P20073),inactive: 0.017,inactive: -0.013,inactive: 0.007,inactive: 0.012,inactive: -0.017

# Next part

Target,log2 fold change [1],log2 fold change [2],log2 fold change [3],log2 fold change [4],log2 fold change [5]
ANKRD44 isoform 2 (UniProt Q8N8A2),inactive: -0.032,inactive: -0.045,inactive: 0.019,–,active: -1
ANKZF1 (UniProt Q9H8Y5),inactive: 0.101,inactive: -0.026,inactive: 0.015,inactive: 0.017,inactive: 0.009
AP1AR (UniProt Q63HQ0),inactive: 0.143,inactive: -0.022,inactive: 0.024,–,inactive: -0.025
ALDH6A1 (UniProt Q02252),inactive: 0.011,inactive: -0.111,inactive: 0,inactive: 0.02,inactive: -0.061
ANTXR2 isoform 4 (UniProt P58335),inactive: 0.042,inactive: 0.04,inactive: -0.014,inactive: -0.017,inactive: -0.064
ANKRD29 (UniProt Q8N6D5),inactive: -0.102,inactive: -0.114,inactive: 0.178,inactive: -0.19,inactive: -0.196
ANAPC10 (UniProt Q9UM13),inactive: 0.022,inactive: 0.003,inactive: -0.036,inactive: -0.041,inactive: 0.001
ALDOA (UniProt H3BPS8),inactive: -0.109,inactive: 0.028,inactive: 0.071,–,inactive: -0.05
ALG11 (UniProt Q2TAA5),inactive: -0.095,inactive: 0.001,–,inactive: 0.085,inactive: -0.002
AP3M2 (UniProt P53677),inactive: -0.02,inactive: -0.078,inactive: -0.143,inactive: -0.014,inactive: -0.114
ANXA1 (UniProt P04083),inactive: -0.011,inactive: 0.005,inactive: -0.01,inactive: -0.019,inactive: -0.005
ANKLE2 (UniProt Q86XL3),inactive: -0.015,inactive: 0.017,inactive: -0.066,inactive: 0.042,inactive: 0.045
AP1S2 (UniProt P56377),inactive: -0.115,inactive: -0.078,inactive: -0.124,–,inactive: 0.186
AMOTL1 (UniProt Q8IY63),inactive: -0.087,inactive: 0.018,inactive: -0.099,inactive: 0.16,inactive: 0.101
AP2A1 (UniProt O95782),inactive: -0.028,inactive: 0.036,inactive: 0.022,inactive: 0.024,inactive: -0.016
ALDH18A1 (UniProt P54886),inactive: -0.018,inactive: -0.032,inactive: 0.019,inactive: -0.005,inactive: 0.034
ANKHD1 isoform 2 (UniProt Q8IWZ3),inactive: -0.071,inactive: -0.038,–,inactive: -0.031,inactive: 0.032
ANXA2 (UniProt H0YL33),inactive: 0.079,inactive: -0.079,–,inactive: -0.135,inactive: 0.466
ANK3 (UniProt Q12955),inactive: -0.012,inactive: -0.007,inactive: -0.011,inactive: 0.031,inactive: -0.01
AP1S2 isoform 2 (UniProt P56377),inactive: 0.026,inactive: -0.004,inactive: 0.023,inactive: -0.063,inactive: -0.196
ANKRD13A (UniProt Q8IZ07),inactive: 0.025,inactive: 0.055,inactive: 0.01,inactive: -0.062,inactive: 0.008
ALG9 isoform 3 (UniProt Q9H6U8),inactive: -0.051,inactive: 0.049,inactive: 0.002,inactive: -0.084,inactive: -0.01
ANGPTL4 (UniProt M0R3A2),inactive: -0.007,inactive: 0.11,inactive: 0.003,–,inactive: 0.053
ALKBH2 (UniProt Q6NS38),inactive: 0.105,inactive: 0.026,inactive: 0,inactive: -0.026,inactive: -0.068
AP4E1 (UniProt Q9UPM8),inactive: -0.039,inactive: 0.003,inactive: 0.011,inactive: -0.056,inactive: 0.007
ALG5 (UniProt Q9Y673),inactive: 0.066,inactive: 0.03,inactive: 0.043,inactive: -0.02,inactive: -0.008
AP1B1 (UniProt Q10567),inactive: 0.005,inactive: 0.042,inactive: -0.014,inactive: 0.041,inactive: 0.01
